# From article PMC12040169 (PLOS Biology, 2025)
# Some of the results follow.
# System: T1, CTL2-GFP (C. trachomatis L2/434/Bu, GFP-expressing)
# T1 construct: L2/434/Bu, GFP-expressing
# Design: species or system HeLa; Intracellular C. trachomatis growth in HeLa cells, bulk GFP fluorescence relative to DMSO
# Settings: bulk GFP, single well; 28.5 h, 10 µM; inhibitor
row,SMILES,% of control remaining [%]
1,Cc1ccc(-n2c(SCC(=O)N3CCC(C(=O)O)CC3)nc3ccccc3c2=O)cc1C [CBK297540],140.412
2,COc1ccccc1Nc1nc(N)nc(CSc2nccn2C)n1 [CBK266710],142.958
3,CCOc1ccc2nc(NS(=O)(=O)c3cc(C(=O)O)c(Cl)cc3Cl)sc2c1 [CBK299789],131.616
4,CCOC(=O)c1c(NC(=O)Cn2nc(C(F)(F)F)c(Cl)c2C)sc2c1CCCC2 [CBK263019],122.506
5,Cc1cc(C(=O)N(C)C2CCCCC2)no1 [CBK057375],109.638
6,CCC(CC)C(=O)Nc1ccc([C@@H](O)[C@H]2COCC(=O)N2CC)cc1 [CBK289684],127.351
7,O=C(Cc1ccc(F)cc1F)Nc1ccc2cc[nH]c2c1 [CBK160044],215.631
8,COc1ccc(CCOc2nccnc2-c2ccsc2)cc1 [CBK106775],84.0578
9,CC(=O)N1C[C@H](O)C[C@H]1C(=O)N1CC[C@H]2NC(=O)[C@H](Cc3ccccc3)NC(=O)C3(C/C=C/C[C@H]2C1)CCOCC3 [CBK292204],134.823
10,CC(C)(C)c1ccc(S(=O)(=O)N/N=C\c2ccc(Cl)cc2Cl)cc1 [CBK264759],100
11,Nc1nc(N)nc(CSc2ncc(-c3ccccc3)n2-c2ccccc2)n1 [CBK297103],155.075
12,Cc1c(OCc2cnn(-c3ccccc3)c2)ccc(-c2n[nH]c(C(F)(F)F)c2-c2ccccc2)c1O [CBK264962],38.9525
13,NC(=O)CC[C@H](N)C(=O)N1CC[C@@H]2NC(=O)[C@H](Cc3ccccc3)NC(=O)C3(C/C=C/C[C@@H]2C1)CCOCC3 [CBK292199],160.319
14,O=C(c1ccc(F)cc1)C1CCN(Cc2ccc(Cl)c(Cl)c2)CC1 [CBK149114],134.583
15,CN(CCCNC(=O)c1ncoc1-c1cccs1)c1ccccc1 [CBK282248],103.713
16,COc1cc2c(cc1OC)C1c3ccccc3NC(c3ccc(F)cc3)N1CC2 (centres unmarked) [CBK286191],105.202
17,O=C(NCc1cccnc1)N1CCCC(CO)C1 (centres unmarked) [CBK156037],127.535
18,Cc1cc(-c2cnc(N)nc2)cc(C2CCCN(S(=O)(=O)c3ccc(F)c(C)c3)C2)n1 (centres unmarked) [CBK285934],115.701
19,COc1ccc(CN(C)c2c(C)nc3c(OCC(=O)N4CCOCC4)cccn23)cc1 [CBK147469],113.174
20,O=C(CCn1cnnn1)Nc1cc(C(F)(F)F)ccc1Cl [CBK270127],142.556
21,CCOc1ccc(CNc2ccc(CNc3ncn[nH]3)cc2)cc1 [CBK267617],114.823
22,Cc1cc(=O)[nH]c(-n2nc(C)cc2NC(=O)c2ccccc2C)n1 [CBK287654],163.889
23,CCCC(=O)Nc1ccc(OCc2cnccn2)c(C(C)=O)c1 [CBK304766],131.937
24,C(=N\Nc1nc2ccccc2[nH]1)/c1cccs1 [CBK025417],72.8801
25,CC12CN3CCN(CC(C3)C1(O)CN1CCOCC1)C2 (centres unmarked) [CBK263033],112.435

row,SMILES,% of control remaining [%]
1,CCOC(=O)COc1ccc2c(=O)c(Oc3ccc([N+](=O)[O-])cc3)c(C)oc2c1C [CBK266092],130.886
2,CCOC(=O)c1cnc2ccc(OC)cc2c1Nc1ccc(OC)cc1 [CBK095337],108.261
3,CCc1[nH]ncc1C(=O)N1CCN(c2nccc(OC)n2)CC1 [CBK304915],105.869
4,O=C(CCn1cnc2ccccc2c1=O)Nc1ccccc1C(F)(F)F [CBK270056],105.701
5,CC(=O)N1CCC(O)(Cn2c(C3CC3)cc3cccnc32)CC1 [CBK283082],106.61
6,CC(=O)N1CCc2c([nH]c3cc(F)ccc23)C12CCN(CCC#N)CC2 [CBK039692],96.7797
7,COc1cc2c(cc1C(C)c1ccc3c(c1)OCO3)OCO2 (centres unmarked) [CBK200107],68.1722
8,Cc1nnc(SCC(=O)NCc2c(C)c(Cl)cc(C(C)C)c2O)s1 [CBK269662],135.554
9,COC(=O)COc1nccnc1-c1ccc(C)c(C)c1 [CBK106871],135.319
10,O=C(c1ccccc1Nc1cccc(C(F)(F)F)c1)N1CCN(c2ccccn2)CC1 [CBK012634],89.7668
11,Cc1cnc(C(=O)OCc2cc(=O)n3ccsc3n2)cn1 [CBK296978],150.681
12,O=C1NC2(CCN(C(=O)C(F)(F)F)CC2)Oc2ccccc21 [CBK283906],119.19
13,O=C(O)CN(c1cccc([N+](=O)[O-])c1)S(=O)(=O)c1ccccc1 [CBK262684],129.07
14,CC(=O)CCC(=O)N1CCN(C(=O)c2ccc(-c3ccc(S(C)(=O)=O)cc3)cn2)CC1 [CBK160484],115.748
15,CN1CCCc2ccc(S(=O)(=O)Nc3ccc4nncn4c3)cc21 [CBK306435],116.561
16,Cn1nccc1C(=O)C1CCN(C(=O)c2cc3c(s2)CCC3)CC1 [CBK284427],141.711
17,OCCOc1ccccc1-c1cc[nH]n1 [CBK001973],71.6916
18,Cc1ccc(NC(=O)c2ccc(-c3ccccc3)cc2)c(OC(=O)c2ccc(-c3ccccc3)cc2)c1 [CBK261347],127.91
19,O/N=C/c1c[nH]c2ccccc12 [CBK168630],94.2476
20,CN1CCC(C(=O)NC2Cc3ccccc3C2)CC1 [CBK200263],146.197
21,O=C1CCC(=O)N1CCN1CC(O)CC1c1cc(F)ccc1F (centres unmarked) [CBK306390],149.852
22,CCOC(=O)CC(=O)N1CCC(c2onc3c2CC(C)CC3)CC1 (centres unmarked) [CBK285187],115.768
23,COc1ccc(Nc2cc(-c3cc4ccccc4o3)ncn2)c(C)c1 [CBK091040],151.589
24,O=C(CC1CCCC1)NCCn1nc(-c2ccco2)ccc1=O [CBK283864],105.805
25,Cc1ccc(C2=CCN(CC(=O)Nc3nccs3)CC2)o1 [CBK283557],117.146

# Some of the entries so far, bar-delimited:
row | SMILES | % of control remaining [%]
7 | COc1cc2c(cc1C(C)c1ccc3c(c1)OCO3)OCO2 (centres unmarked) [CBK200107] | 68.1722
8 | Cc1nnc(SCC(=O)NCc2c(C)c(Cl)cc(C(C)C)c2O)s1 [CBK269662] | 135.554
9 | COC(=O)COc1nccnc1-c1ccc(C)c(C)c1 [CBK106871] | 135.319
10 | O=C(c1ccccc1Nc1cccc(C(F)(F)F)c1)N1CCN(c2ccccn2)CC1 [CBK012634] | 89.7668
11 | Cc1cnc(C(=O)OCc2cc(=O)n3ccsc3n2)cn1 [CBK296978] | 150.681
12 | O=C1NC2(CCN(C(=O)C(F)(F)F)CC2)Oc2ccccc21 [CBK283906] | 119.19
13 | O=C(O)CN(c1cccc([N+](=O)[O-])c1)S(=O)(=O)c1ccccc1 [CBK262684] | 129.07
14 | CC(=O)CCC(=O)N1CCN(C(=O)c2ccc(-c3ccc(S(C)(=O)=O)cc3)cn2)CC1 [CBK160484] | 115.748
15 | CN1CCCc2ccc(S(=O)(=O)Nc3ccc4nncn4c3)cc21 [CBK306435] | 116.561
